Results taken from publication doi:10.1101/2025.09.11.675682.

Amino acid sequences for entries named in this document (tags omitted). A change or cut given only in a name is not applied to a line headed by its entry.
UniProt Q13094: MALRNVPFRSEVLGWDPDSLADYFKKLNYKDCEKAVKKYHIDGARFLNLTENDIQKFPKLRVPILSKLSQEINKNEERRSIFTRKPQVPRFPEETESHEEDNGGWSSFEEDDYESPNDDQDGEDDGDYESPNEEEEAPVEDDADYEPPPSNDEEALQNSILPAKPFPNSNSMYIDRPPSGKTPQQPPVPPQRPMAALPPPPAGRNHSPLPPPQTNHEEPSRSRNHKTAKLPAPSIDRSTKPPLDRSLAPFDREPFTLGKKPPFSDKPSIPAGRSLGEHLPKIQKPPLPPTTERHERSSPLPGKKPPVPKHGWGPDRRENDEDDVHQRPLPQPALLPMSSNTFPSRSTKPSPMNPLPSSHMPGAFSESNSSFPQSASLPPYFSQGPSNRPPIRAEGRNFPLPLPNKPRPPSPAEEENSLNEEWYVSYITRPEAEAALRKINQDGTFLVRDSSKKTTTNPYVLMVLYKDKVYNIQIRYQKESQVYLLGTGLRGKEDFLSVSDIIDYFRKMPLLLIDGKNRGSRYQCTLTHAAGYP

Biological target: His6-3C-Halo-tev-ITK(C96E/T110I)-FLAG
Assay: ITC; PEAQ-ITC; 5°C; 20 mM Hepes (pH 7.4), 100 mM NaCl, 0.1 mM DTT; SLP-76 4 μM in the cell, Itk 40 μM in the syringe (methods); both purified

For QPPVPPQRPMAALPPP (peptide, UniProt Q13094 185-200) [SLP-76 PRR peptide (aa 185–200), wild type], the binding was “no binding (tested: 4 μM in the cell, 40 μM in the syringe)”.

These are yes or no findings as the source states them, for the method shown.
